The highest values were mostly taken out for another list; the other results follow.
system: SARS-CoV-2; assay: Inhibition of cell viability relative to arbidol control (inhibition index > 1 indicates higher activity) measured by fluorescence (OD590nm) in Vero E6 cells infected with SARS-CoV-2 (strain BavPat1) at MOI 0.002 after 72hrs; assay type: functional, Chlorocebus sabaeus, Vero C1008

With `Br.CN1[C@@H]2CC[C@H]1C[C@@H](OC(=O)C(O)c1ccccc1)C2` (some centres not stated) [HOMATROPINE HYDROBROMIDE] as the molecule, how does the Inhibition index read?
Its Inhibition index is 0.04131.

With `CCC(C)C(C(=O)OCC[N+](C)(CC)CC)c1ccccc1.[Br-]` (configuration not stated) [VALETHAMATE BROMIDE] as the molecule, how does the Inhibition index read?
Its Inhibition index is 0.2742.

— ChEMBL document CHEMBL4303097 (2020)
